The effect of the compound repeats well; differences between the knockouts mostly do not.
System: BT-20
Test: relative cell number vs DMSO control (72 h) (% of DMSO); higher = less growth inhibition (more cells)
Experimental: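 QMAP-Seq: a pool of 5 breast cancer cell lines (ZR-75-1, SKBR3, HCC-38, MDA-MB-231, BT-20), each carrying 12 doxycycline-inducible Cas9 sgRNA perturbations (11 knockouts plus non-targeting sgNT), was treated with compounds for 72 h at four 10-fold doses (10 nM-10 uM or 1 nM-1 uM range). Barcodes were amplified and sequenced, and cell number was interpolated from 293T spike-in standard curves. The result is expressed as % of the median of DMSO wells. Two biological replicates.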

CC(C)C[C@H](NC(=O)CNC(=O)c1cc(Cl)ccc1Cl)B(O)O [MLN2238]
Conditions	relative cell number
sgRNA knockout: sgATF3, 10 nM	99.4
sgRNA knockout: sgATF3, 100 nM	91.1
sgRNA knockout: sgATF3, 1000 nM	32.8
sgRNA knockout: sgATF3, 10000 nM	12.9
sgRNA knockout: sgATF4, 10 nM	81.6
sgRNA knockout: sgATF4, 100 nM	85.3
sgRNA knockout: sgATF4, 1000 nM	29.6
sgRNA knockout: sgATF4, 10000 nM	11.2
sgRNA knockout: sgATF6, 10 nM	76.7
sgRNA knockout: sgATF6, 100 nM	72.1
sgRNA knockout: sgATF6, 1000 nM	27.5
sgRNA knockout: sgATF6, 10000 nM	19.3
sgRNA knockout: sgATG7, 10 nM	84
sgRNA knockout: sgATG7, 100 nM	83.2
sgRNA knockout: sgATG7, 1000 nM	26.1
sgRNA knockout: sgATG7, 10000 nM	12.7
sgRNA knockout: sgERN1, 10 nM	96.1
sgRNA knockout: sgERN1, 100 nM	97.3
sgRNA knockout: sgERN1, 1000 nM	28.5
sgRNA knockout: sgERN1, 10000 nM	17
sgRNA knockout: sgHSF1, 10 nM	67.7
sgRNA knockout: sgHSF1, 100 nM	69.4
sgRNA knockout: sgHSF1, 1000 nM	21.1
sgRNA knockout: sgHSF1, 10000 nM	9.81
sgRNA knockout: sgHSF2, 10 nM	86.4
sgRNA knockout: sgHSF2, 100 nM	100.5
sgRNA knockout: sgHSF2, 1000 nM	37.8
sgRNA knockout: sgHSF2, 10000 nM	12.3
sgRNA knockout: sgKEAP1, 10 nM	93.4
sgRNA knockout: sgKEAP1, 100 nM	94.6
sgRNA knockout: sgKEAP1, 1000 nM	33
sgRNA knockout: sgKEAP1, 10000 nM	14.6
sgRNA knockout: sgNFE2L2, 10 nM	76.5
sgRNA knockout: sgNFE2L2, 100 nM	61.8
sgRNA knockout: sgNFE2L2, 1000 nM	23.03
sgRNA knockout: sgNFE2L2, 10000 nM	14.2
sgRNA knockout: sgSLC35F2, 10 nM	107
sgRNA knockout: sgSLC35F2, 100 nM	97.15
sgRNA knockout: sgSLC35F2, 1000 nM	35.6
sgRNA knockout: sgSLC35F2, 10000 nM	17.5
sgRNA knockout: sgXBP1, 10 nM	71.1
sgRNA knockout: sgXBP1, 100 nM	80.8
sgRNA knockout: sgXBP1, 1000 nM	28.4
sgRNA knockout: sgXBP1, 10000 nM	7.21

COc1cc(-n2c(=S)[nH]c3ccccc3c2=O)c(Cl)cc1Cl [Mdivi1]
Conditions	relative cell number
sgRNA knockout: sgATF3, 10 nM	92.1
sgRNA knockout: sgATF3, 100 nM	96.1
sgRNA knockout: sgATF3, 1000 nM	99.5
sgRNA knockout: sgATF3, 10000 nM	86.7
sgRNA knockout: sgATF4, 10 nM	92.9
sgRNA knockout: sgATF4, 100 nM	113.87
sgRNA knockout: sgATF4, 1000 nM	119
sgRNA knockout: sgATF4, 10000 nM	88.1
sgRNA knockout: sgATF6, 10 nM	90.1
sgRNA knockout: sgATF6, 100 nM	109
sgRNA knockout: sgATF6, 1000 nM	105
sgRNA knockout: sgATF6, 10000 nM	96.3
sgRNA knockout: sgATG7, 10 nM	91.6
sgRNA knockout: sgATG7, 100 nM	95
sgRNA knockout: sgATG7, 1000 nM	95.2
sgRNA knockout: sgATG7, 10000 nM	102
sgRNA knockout: sgERN1, 10 nM	101
sgRNA knockout: sgERN1, 100 nM	95.6
sgRNA knockout: sgERN1, 1000 nM	99.8
sgRNA knockout: sgERN1, 10000 nM	96.9
sgRNA knockout: sgHSF1, 10 nM	89
sgRNA knockout: sgHSF1, 100 nM	105
sgRNA knockout: sgHSF1, 1000 nM	83.9
sgRNA knockout: sgHSF1, 10000 nM	92.7
sgRNA knockout: sgHSF2, 10 nM	85.6
sgRNA knockout: sgHSF2, 100 nM	98.8
sgRNA knockout: sgHSF2, 1000 nM	106
sgRNA knockout: sgHSF2, 10000 nM	95.9
sgRNA knockout: sgKEAP1, 10 nM	85
sgRNA knockout: sgKEAP1, 100 nM	88.8
sgRNA knockout: sgKEAP1, 1000 nM	85.2
sgRNA knockout: sgKEAP1, 10000 nM	93.5
sgRNA knockout: sgNFE2L2, 10 nM	80.1
sgRNA knockout: sgNFE2L2, 100 nM	106
sgRNA knockout: sgNFE2L2, 1000 nM	100
sgRNA knockout: sgNFE2L2, 10000 nM	93.1
sgRNA knockout: sgSLC35F2, 10 nM	92.5
sgRNA knockout: sgSLC35F2, 100 nM	126
sgRNA knockout: sgSLC35F2, 1000 nM	95.8
sgRNA knockout: sgSLC35F2, 10000 nM	79
sgRNA knockout: sgXBP1, 10 nM	94.7
sgRNA knockout: sgXBP1, 100 nM	102
sgRNA knockout: sgXBP1, 1000 nM	109
sgRNA knockout: sgXBP1, 10000 nM	103

O=C1c2c(O)ccc(O)c2C(=O)c2c(NCCNCCO)ccc(NCCNCCO)c21 [Mitoxantrone]
Conditions	relative cell number
sgRNA knockout: sgATF3, 10 nM	65.6
sgRNA knockout: sgATF3, 100 nM	40.1
sgRNA knockout: sgATF3, 1000 nM	31.8
sgRNA knockout: sgATF3, 10000 nM	8.75
sgRNA knockout: sgATF4, 10 nM	71.9
sgRNA knockout: sgATF4, 100 nM	36.3
sgRNA knockout: sgATF4, 1000 nM	30.56
sgRNA knockout: sgATF4, 10000 nM	9.55
sgRNA knockout: sgATF6, 10 nM	62.6
sgRNA knockout: sgATF6, 100 nM	36.2
sgRNA knockout: sgATF6, 1000 nM	26
sgRNA knockout: sgATF6, 10000 nM	8.04
sgRNA knockout: sgATG7, 10 nM	75.4
sgRNA knockout: sgATG7, 100 nM	45.6
sgRNA knockout: sgATG7, 1000 nM	25.1
sgRNA knockout: sgATG7, 10000 nM	7.58
sgRNA knockout: sgERN1, 10 nM	69
sgRNA knockout: sgERN1, 100 nM	43.7
sgRNA knockout: sgERN1, 1000 nM	25.6
sgRNA knockout: sgERN1, 10000 nM	7.22
sgRNA knockout: sgHSF1, 10 nM	70.2
sgRNA knockout: sgHSF1, 100 nM	46.2
sgRNA knockout: sgHSF1, 1000 nM	23.6
sgRNA knockout: sgHSF1, 10000 nM	9.06
sgRNA knockout: sgHSF2, 10 nM	79.2
sgRNA knockout: sgHSF2, 100 nM	35.1
sgRNA knockout: sgHSF2, 1000 nM	25.9
sgRNA knockout: sgHSF2, 10000 nM	8.19
sgRNA knockout: sgKEAP1, 10 nM	75.9
sgRNA knockout: sgKEAP1, 100 nM	37.2
sgRNA knockout: sgKEAP1, 1000 nM	28.7
sgRNA knockout: sgKEAP1, 10000 nM	8.29
sgRNA knockout: sgNFE2L2, 10 nM	56.8
sgRNA knockout: sgNFE2L2, 100 nM	33.4
sgRNA knockout: sgNFE2L2, 1000 nM	23.5
sgRNA knockout: sgNFE2L2, 10000 nM	6.8
sgRNA knockout: sgSLC35F2, 10 nM	78.5
sgRNA knockout: sgSLC35F2, 100 nM	39
sgRNA knockout: sgSLC35F2, 1000 nM	26.9
sgRNA knockout: sgSLC35F2, 10000 nM	6.45
sgRNA knockout: sgXBP1, 10 nM	60.2
sgRNA knockout: sgXBP1, 100 nM	38.7
sgRNA knockout: sgXBP1, 1000 nM	31.2
sgRNA knockout: sgXBP1, 10000 nM	8.93

From the supplement of paper PMC7661543
